Measured values from the supplement of paper PMC10373366.
Where a name gives a salt, the structure may show the parent alone. The list shows a part of the results. Many values rest on one well or one pass, so single values are uncertain.

What was measured:
[1] = test system: patient-derived ovarian cancer cells (PDC); test: cell growth inhibition ratio vs untreated control (CCK8); higher = stronger inhibition of cell viability; details: 10 µM; 48 h
Protocol: (§1)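 Natural product library (Topscience) screened at 10 µM final concentration for 48 h on ovarian cancer A2780 cells and patient-derived ovarian cancer cells (PDC) in 96-well plates; viability read by CCK8 and reported as inhibition ratio (%) relative to untreated control. Single-dose primary screen.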

[2] = test system: A2780; test: as above; details: 10 µM; 48 h
Protocol: as §1

SMILES	cell growth inhibition ratio [1]	cell growth inhibition ratio [2]
COc1cc(C(=O)O)cc(OC)c1OC [Gallic acid trimethyl ether]	-6.36%	
COc1cc([C@@H]2c3cc4c(cc3[C@H](O)[C@H]3COC(=O)[C@@H]23)OCO4)cc(OC)c1OC [Picropodophyllin (PPP)]	50.7%	
CC[C@@]1([C@@H]2O[C@@H]([C@H]3O[C@@](O)(CO)[C@H](C)C[C@@H]3C)C[C@@H]2C)CC[C@H]([C@]2(C)CC[C@]3(C[C@H](O)[C@@H](C)[C@@H]([C@@H](C)[C@@H](OC)[C@H](C)C(=O)O)O3)O2)O1 [Monensin sodium salt]	-10.5%	78.8%
CC(=O)OC12COC1CC(O)C1(C)C(=O)C(O)C3=C(C)C(O)CC(O)(C(OC(=O)c4ccccc4)C21)C3(C)C (configuration not stated) [10-Deacetylbaccatin III]	28.1%	
O=C1C=CC[C@@H]2[C@H]3CCC[N+]4([O-])CCC[C@@H](CN12)[C@@H]34 (some centres not stated) [Oxysophocarpine]	-7.96%	2.24%
CN[C@@H]1[C@@H](O)[C@@H](O[C@@H]2[C@@H](O)[C@H](O[C@H]3O[C@H]([C@@H](C)O)[C@@H](O)[C@H](O)[C@H]3N)[C@@H](N)C[C@H]2N)OC[C@]1(C)O [Geneticin (G418 Sulfate)]	-8.14%	
C[C@@H]1CC[C@@]2(OC1)O[C@H]1[C@@H](O)[C@H]3[C@@H]4CC[C@H]5C[C@@H](O[C@@H]6O[C@H](CO)[C@H](O[C@@H]7O[C@H](CO)[C@@H](O)[C@H](O[C@@H]8OC[C@@H](O)[C@H](O)[C@H]8O)[C@H]7O[C@@H]7O[C@H](CO)[C@H](O)[C@H](O[C@@H]8O[C@H](CO)[C@@H](O)[C@H](O)[C@H]8O)[C@H]7O)[C@H](O)[C@H]6O)[C@H](O)C[C@]5(C)[C@H]4CC[C@]3(C)[C@H]1[C@@H]2C [Digitonin]	91.9%	
CN1[C@@H]2C[C@@H](OC(=O)[C@H](CO)c3ccccc3)C[C@H]1[C@@H]1O[C@@H]12 [Scopolamine HBr trihydrate]	5.68%	
CC(=O)O[C@H]1[C@H]2O[C@]23[C@@H]2CC[C@@H]4C[C@@H](O)CC[C@]4(C)[C@H]2CC[C@]3(C)[C@H]1c1ccc(=O)oc1 [Cinobufagin]	75.2%	
C[C@]12CCC(=O)C=C1CC[C@@H]1[C@@H]2C(=O)C[C@]2(C)C(=O)CC[C@@H]12 [Adrenosterone]	12.9%	2.88%
CC1=C2C[C@H]3[C@@H](CC=C4C[C@@H](O)CC[C@@]43C)[C@@H]2CC[C@]12O[C@@H]1C[C@H](C)CN[C@H]1[C@H]2C [Cyclopamine]	14.1%	
COc1cc2c(cc1OC)C13CCN4CC5=CCOC6CC(=O)N2C1C6C5CC43 (configuration not stated) [Brucin]	3.34%	19.9%
CNC1CC(N)C(O)C(OC2OC(CO)C(O)C3OC4(OC(C(N)CO)C(O)C(O)C4O)OC23)C1O (configuration not stated) [Hygromycin B]	19%	
CN(C)[C@@H]1C(=O)C(C(N)=O)=C(O)[C@@]2(O)C(=O)C3=C(O)c4c(O)ccc(Cl)c4[C@@](C)(O)[C@H]3C[C@@H]12 [Chlortetracycline hydrochloride]	0.892%	26.2%
CCC1(O)C(=O)OCc2c1cc1n(c2=O)Cc2cc3ccccc3nc2-1 (single isomer, unassigned; (+)) [(+)-Camptothecin]	82.1%	86.3%
NCCc1ccccc1 [Phenethylamine]	-9.44%	
O=c1ccc2cc(O[C@@H]3O[C@H](CO)[C@@H](O)[C@H](O)[C@H]3O)c(O)cc2o1 [Esculin]	6.69%	

In another format: entries from further up
SMILES | cell growth inhibition ratio [1] | cell growth inhibition ratio [2]
CC1=C2C[C@H]3[C@@H](CC=C4C[C@@H](O)CC[C@@]43C)[C@@H]2CC[C@]12O[C@@H]1C[C@H](C)CN[C@H]1[C@H]2C [Cyclopamine] | 14.1% | 
COc1cc2c(cc1OC)C13CCN4CC5=CCOC6CC(=O)N2C1C6C5CC43 (configuration not stated) [Brucin] | 3.34% | 19.9%

Next compounds follow.

SMILES	cell growth inhibition ratio [1]	cell growth inhibition ratio [2]
C[C@]12CC[C@H]3[C@@H](CCC4=CC(=O)CC[C@@]43C)[C@@H]1CC[C@@H]2O [Testosterone]	18.6%	9.74%
CCC12C=CCN3CC[C@@]4(c5ccc(OC)cc5N(C)[C@H]4[C@@](O)(C(=O)OC)[C@@H]1OC(C)=O)[C@@H]32 (some centres not stated) [Vindoline]	-4.71%	
CC[C@H](C)[C@H]1O[C@]2(C=C[C@@H]1C)C[C@@H]1C[C@@H](C/C=C(\C)[C@@H](O[C@H]3C[C@H](OC)[C@@H](O[C@H]4C[C@H](OC)[C@@H](O)[C@H](C)O4)[C@H](C)O3)[C@@H](C)/C=C/C=C3\CO[C@@H]4[C@H](O)C(C)=C[C@@H](C(=O)O1)[C@]34O)O2.CO[C@H]1C[C@H](O[C@H]2[C@H](C)O[C@@H](O[C@@H]3/C(C)=C/C[C@@H]4C[C@@H](C[C@]5(C=C[C@H](C)[C@@H](C(C)C)O5)O4)OC(=O)[C@@H]4C=C(C)[C@@H](O)[C@H]5OC/C(=C\C=C\[C@@H]3C)[C@]54O)C[C@@H]2OC)O[C@@H](C)[C@@H]1O [Abamectin]	-4.45%	69.4%
O=C1CCC[C@@H]2[C@H]3CCCN4CCC[C@H](CN12)[C@@H]34 [Sophoridine]	3.97%	
CN(C)[C@@H]1C(=O)C(C(N)=O)=C(O)[C@@]2(O)C(=O)C3=C(O)c4c(O)cccc4[C@@](C)(O)[C@H]3C[C@@H]12 [Tetracycline hydrochloride]	-10.3%	-0.968%
COc1cccc2c1cc([N+](=O)[O-])c1c(C(=O)O)cc3c(c12)OCO3 [Aristolochic Acid]	70.4%	
COC1=C[C@@H]2[C@@H]3Cc4ccc(OC)c(O)c4[C@]2(CCN3C)CC1=O [Sinomenine]	-4.82%	
C[C@]12CC[C@H](O)C[C@@H]1CC[C@@H]1[C@@H]2CC[C@]2(C)C(=O)CC[C@@H]12 [Epiandrosterone]	-8.03%	9.32%
C[C@@H]1O[C@@H](O[C@H]2C[C@@H](O)[C@]3(CO)[C@H]4[C@H](O)C[C@]5(C)[C@@H](C6=CC(=O)OC6)CC[C@]5(O)[C@@H]4CC[C@]3(O)C2)[C@H](O)[C@H](O)[C@H]1O [Ouabain octahydrate]	68.6%	
O=C(O)C1C2CCC(O2)C1C(=O)O (configuration not stated) [Sodium Demethylcantharidate]	32.7%	
CC(C)[C@]12O[C@H]1[C@@H]1O[C@]13[C@]1(O[C@H]1C[C@H]1C4=C(CC[C@@]13C)C(=O)OC4)[C@@H]2O [Triptolide (PG490)]	87.3%	83.2%
COc1cc2c(cc1OC)[C@@H](Cc1ccc(O)c(Oc3cc4c(cc3OC)CCN(C)[C@@H]4Cc3ccc(O)cc3)c1)N(C)CC2.[O-][Cl+3]([O-])([O-])O [Liensinine Perchlorate]	13.3%	
COc1cc2c(c(OC)c1OC)-c1ccc(OC)c(=O)cc1[C@@H](NC(C)=O)CC2 [Colchicine]	46.4%	
C[C@H]1CCC/C=C/[C@@H]2C[C@H](O)C[C@H]2[C@H](O)/C=C/C(=O)O1 [Brefeldin A]	85.6%	90%
CCC(=O)O[C@H]1CC[C@H]2[C@@H]3CC[C@H]4CC(=O)[C@H](C)C[C@]4(C)[C@H]3CC[C@]12C [Drostanolone Propionate]	9.24%	38.2%
COc1cc(OC)c(OC)cc1C=O [Asarylaldehyde]	-15.1%	0.883%
